The source of these data is US8632749B2, “Two photon tracer, method for the preparation thereof and the use thereof in screening anticancer agents” (SNU R&DB Foundation, priority 2009, dated 2014).

This data set deals with Human colon cancer tissue and normal tissue. Kind of data set: TPM imaging of AG2 uptake in human colon normal and cancer tissue slices. The procedure:
In the present invention, an additional assessment was made of the utility of AG2 in tissue imaging for the diagnosis of colon cancer. In this regard, the images of normal- and cancer-tissue slices from colon-cancer patients were employed. […] The tissues were incubated in artificial cerebrospinal fluid (ACSF) for 4 h at 37° C. in the absence and presence of taxol (50 μM), after which AG2 uptake was monitored with TPM by following the change in TPEF at a depth of 100 μm.
Human colon cancer tissue and normal tissue were obtained from colon cancer patients by conducting colonoscopic examinations and taking samples.
Normal tissues, cancerous tissue, and cancerous tissue containing 50 μM taxol were incubated in artificial cerebrospinal fluid (ACSF) bubbled with 95% O2 and 5% CO2 for 4 hrs at 37° C. The tissues were then washed three times with ACSF, transferred to glass-bottomed dishes (MatTek), added with 50 μM AG2, and observed by TPM.
To determine whether the relative uptake was affected by incubation in ACSF, the same experiment was conducted with normal tissue and colon cancerous tissue obtained immediately after the colonoscopic biopsy.

With `CC(=O)c1ccc2cc(N(C)CC(=O)N3CCN(CCOC4OC(CO)C(O)C(O)C4O)CC3)ccc2c1` (centres unmarked) [AG2], where the note is “tissue depth >150 μm”, the “AG2 uptake at imaging depth” value is listed as “negligible”. The “Time uptake could be monitored without noticeable decay” value (tissue slices, TPM) is recorded as “more than 3000 s”.
